Assay results taken from the supplement of paper PMC10735217.
Some of the results follow. Repeats in this data set agree poorly, so a single value says little.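 Human kidney-derived cells stably carry a construct in which eight TEAD-binding elements drive luciferase, measured by luminescence in a drug-repurposing library screen. A hit is any compound whose signal exceeds the plate mean by more than five robust Z scores.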

Test system: HEK293A TEAD-LUC reporter
Test: TEAD-luciferase reporter activity (YAP activation), robust Z score vs plate; higher = stronger YAP/TEAD activation
Settings: 24 h

| Compound | TEAD-luciferase reporter activity (compound concentration: 200 nM) | TEAD-luciferase reporter activity (compound concentration: 2 uM) | TEAD-luciferase reporter activity (compound concentration: 10 uM) |
| --- | --- | --- | --- |
| C/C(=N\Nc1nnc2c(n1)[nH]c1c(C)cccc12)c1ccccn1 | inactive: 0.409 | inactive: -2.96 | inactive: 1.18 |
| NCC[C@H](O)C(=O)N[C@@H]1C[C@H](N)[C@@H](O[C@H]2O[C@H](CN)CC[C@H]2N)[C@H](O)[C@H]1O[C@H]1O[C@H](CO)[C@@H](O)[C@H](N)[C@H]1O | inactive: 0.828 | inactive: -0.478 | inactive: 0.376 |
| O=C(O)C1CCN(C(=O)Cn2c(=O)sc3ccc(Cl)cc32)CC1 | inactive: -0.777 | inactive: -1.59 | inactive: -0.0501 |
| CS(=O)(=O)OCCC(=O)N1CCN(C(=O)CCOS(C)(=O)=O)CC1 | inactive: -0.537 | inactive: 1.81 | inactive: -0.168 |
| COC(=O)Nc1nc2ccc(C(=O)N3CCN(c4ccccn4)CC3)cc2[nH]1 | inactive: -1.01 | inactive: -0.185 | inactive: 0.0817 |
| CCOC(=O)C1C2C(=O)CC3(SCCS3)C21 (stereo not given) | inactive: -0.721 | inactive: 0.102 | inactive: 1.1 |
| O=C(O)C(S)CC(S)C(=O)O (stereo not given) | inactive: 0.0202 | inactive: -1.08 | inactive: 1.78 |
| c1ccc2c(COC3CCNCC3)cccc2c1 | inactive: 0.464 | inactive: 0.551 | inactive: -0.997 |
| COc1ccc(C(=O)N2CCC3(CC2)NC(=O)c2ccccc2O3)cc1 | inactive: -2.58 |  | inactive: 4.2 |
| COC(=O)[C@H](c1ccccc1Cl)N1CCc2sccc2C1 [clopidogrel] | inactive: -1.44 |  | inactive: 0.155 |
| COC(=O)[C@H](c1ccccc1Cl)N1CCc2sccc2C1 [clopidogrel bisulfate, Prism] |  | inactive: -0.275 |  |
| CC(OC(=O)OC1CCCCC1)OC(=O)C1=C(CSc2nnnn2CCN(C)C)CS[C@@H]2[C@H](NC(=O)Cc3csc(N)n3)C(=O)N12 (stereo not given in full) | inactive: -1.99 | inactive: 0.153 | inactive: -1.22 |
| CC(=O)O[C@H]1CC[C@@]2(C)C(=CC[C@@H]3[C@@H]2CC[C@]2(C)C(c4cccnc4)=CC[C@@H]32)C1 [abiraterone acetate] | inactive: 2.42 | inactive: 1.47 | inactive: -0.507 |
| COc1ccccc1N1CCN(CC2CN=C3c4ccccc4N=C(SC)N32)CC1 (stereo not given) | inactive: -2.13 | inactive: 0.669 | active: 7.15 |
| Cc1cc(NC(=O)c2ccc(C)c(C)c2)no1 | active: 9.08 | inactive: -0.395 | inactive: -0.267 |
| Cc1cc(C)c(Nc2ccnc(Nc3ccc(C#N)cc3)n2)c(C)c1 [dapivirine] | inactive: -0.749 | inactive: -1.23 | inactive: -0.211 |
| CCCCCCCCCc1ccc(OCCOCCOCCOCCOCCOCCOCCOCCOCCO)cc1 [Nonoxinol 9] | inactive: -0.759 | inactive: -1.19 | inactive: -0.295 |
| CCCCCCCC(=O)c1ccc(O)c(C(=O)O)c1 [beta-Lipohydroxy acid] | inactive: -2.2 | inactive: 1.65 | inactive: 0.325 |
| Cc1c(NCCN2CCCC2)cc(C(=O)C(C)(C)C)cc1N1CCN(c2ncnc3[nH]nc(Br)c23)CC1 | inactive: -1.24 | inactive: -0.916 | inactive: -1.85 |

| Compound | TEAD-luciferase reporter activity (compound concentration: 200 nM) | TEAD-luciferase reporter activity (compound concentration: 2 uM) | TEAD-luciferase reporter activity (compound concentration: 10 uM) |
| --- | --- | --- | --- |
| Oc1cc2c(cc1O)C(Cc1cccc3ccccc13)NCC2 (stereo not given) | inactive: -0.95 | inactive: -1.06 | inactive: -1.52 |
| CC(C)Oc1cccc(-n2c(CCc3c[nH]c4ccc(Br)cc34)nc3ccccc3c2=O)c1 | inactive: -0.607 | inactive: -1.22 | inactive: -1.53 |
| CCNCCS(=O)(=O)NC[C@]1(c2ccccc2)SC(NC(=O)C(C)(C)C)=NN1C(=O)C(C)(C)C [litronesib] | inactive: -0.539 | inactive: -1.6 | inactive: -0.892 |
| NC(=O)CCC(N)C(=O)O [L-glutamine, BioKier] | inactive: -1.07 |  | inactive: -0.228 |
| CS(=O)(=O)NC(=O)CCC/C=C\C[C@H]1C(=O)C[C@@H](O)[C@@H]1/C=C/[C@@H](O)COc1ccccc1 [Sulprostone] | inactive: 0.349 |  | inactive: -0.97 |
| CS(=O)(=O)NC(=O)CCC/C=C\C[C@H]1C(=O)C[C@@H](O)[C@@H]1/C=C/[C@@H](O)COc1ccccc1 [sulprostone] |  | inactive: 1.44 |  |
| COCCn1c2c([n+](Cc3cnccn3)c1C)C(=O)c1ccccc1C2=O [Sepantronium bromide] | inactive: -2.01 | inactive: -2.51 | inactive: -3.96 |
| CNCCOC(c1ccccc1)c1ccccc1C (stereo not given) | inactive: 0.534 | inactive: -0.275 | inactive: 1.25 |
| CCOCCN(Cc1ccc(Oc2ccc([N+](=O)[O-])cc2)cc1)C(=O)C(Cl)Cl | inactive: -1.05 | inactive: -0.779 | active: 5.09 |
| O=C(Cc1ccccc1)NC1CCN(c2ccc3ncc(-c4cccc(C(F)(F)F)c4)n3n2)CC1 | inactive: 0.612 |  | inactive: -0.0118 |
| Nc1ccn([C@H]2CO[C@@H](CO)S2)c(=O)n1 [Pharmaprojects No. 4701] | inactive: 1.31 | inactive: -0.807 | inactive: -0.0257 |
| NC(=O)N1C(=O)C(=C(O)c2cccs2)c2cc(Cl)ccc21 [Tenidap sodium] | inactive: 0.658 | inactive: -1.17 | inactive: 0.489 |
| Cc1cn2nc([C@@H]3CCCCN3C(=O)c3cc(Cl)ccc3NS(C)(=O)=O)cc2nc1N1CC[C@H](N)C1 [Presatovir] | inactive: -0.0585 | inactive: -1.53 | inactive: 1.55 |
| CCN(CC)CCNc1ccc(CO)c2sc3ccccc3c(=O)c12 | inactive: 0.553 | inactive: -2.68 | inactive: -0.148 |
| CCO[C@H]1O[C@H]([C@@H](CNC(=O)N(C)N=O)OC)[C@H](OC)[C@H]1O | inactive: -0.496 | inactive: -0.575 | inactive: -0.941 |
| CC(C)(Oc1ccc(Cl)cc1)C(=O)N1CSCC1C(=O)O (stereo not given) [Timofibrate] | inactive: -1.78 | inactive: 0.858 | inactive: 2.81 |
| N=C(N)NCCCCC(=O)NCC(=O)NC(CC(=O)O)c1cccnc1 (stereo not given) | inactive: -1.78 | inactive: -0.502 | inactive: -1.49 |
| CCN(CC)CCNC(=O)c1cc(Cl)c(N)cc1OC | inactive: -1.13 |  | inactive: 1.81 |
| CCN(CC)CCNC(=O)c1cc(Cl)c(N)cc1OC [metoclopramide, Diffucap] |  | inactive: 2.29 |  |

Single entries from the list:
Value of Cc1cn2nc([C@@H]3CCCCN3C(=O)c3cc(Cl)ccc3NS(C)(=O)=O)cc2nc1N1CC[C@H](N)C1 [Presatovir] under TEAD-luciferase reporter activity (compound concentration: 2 uM): inactive: -1.53
Value of CC(C)(Oc1ccc(Cl)cc1)C(=O)N1CSCC1C(=O)O (stereo not given) [Timofibrate] under TEAD-luciferase reporter activity (compound concentration: 2 uM): inactive: 0.858
Value of CS(=O)(=O)NC(=O)CCC/C=C\C[C@H]1C(=O)C[C@@H](O)[C@@H]1/C=C/[C@@H](O)COc1ccccc1 [Sulprostone] under TEAD-luciferase reporter activity (compound concentration: 200 nM): inactive: 0.349

Additional results follow.

| Compound | TEAD-luciferase reporter activity (compound concentration: 200 nM) | TEAD-luciferase reporter activity (compound concentration: 2 uM) | TEAD-luciferase reporter activity (compound concentration: 10 uM) |
| --- | --- | --- | --- |
| O=C(O)Cc1sc(-c2ccccc2)nc1-c1ccc(Cl)cc1 [Fentiazac] | inactive: -1.24 |  | inactive: -2.11 |
| O=C(O)Cc1sc(-c2ccccc2)nc1-c1ccc(Cl)cc1 |  | inactive: -1.12 |  |
| CC1CCC(C(C)C)C(OC(=O)C[N+](C)(C)CCCCCCCCCC[N+](C)(C)CC(=O)OC2CC(C)CCC2C(C)C)C1 (stereo not given) [Decamethoxine] | inactive: -1.48 | inactive: -1.84 | inactive: -1.45 |
| c1ccc2[nH]c(-c3cscn3)nc2c1 [Thiabendazole] |  | inactive: -0.485 |  |
| c1ccc2[nH]c(-c3cscn3)nc2c1 | inactive: 2.38 |  | inactive: 2.2 |
| CCN(CC)CC1CCCCN1CC(=O)N1c2ccccc2C(=O)Nc2cccnc21 (stereo not given) [Otenzepad] |  | inactive: -0.959 |  |
| CCN(CC)CC1CCCCN1CC(=O)N1c2ccccc2C(=O)Nc2cccnc21 (stereo not given) | inactive: -2.31 |  | inactive: -1.19 |
| CC(C)CN(C[C@@H](OP(=O)([O-])[O-])[C@H](Cc1ccccc1)NC(=O)O[C@H]1CCOC1)S(=O)(=O)c1ccc(N)cc1 [Fosamprenavir calcium] | inactive: -0.313 | inactive: -1.01 | inactive: 0.211 |
| CCCN(CCC)c1ccc(/N=N/c2ccccc2C(=O)O)cc1 | inactive: 3.88 | inactive: -0.309 | inactive: 2.43 |
| CCCc1c(OCCCOc2ccc(C(C)=O)c(OC)c2CCC)ccc2c1OC(C(=O)O)CC2 (stereo not given) | inactive: -1.6 | inactive: -0.897 | inactive: 0.431 |
| O=C1CCC(c2ccccc2)(C2CCN(C/C=C/c3ccccc3)CC2)C(=O)N1 (stereo not given) | inactive: 0.46 | inactive: -0.39 | inactive: 0.987 |
| O=C1NC(=O)C2(N1)c1ccccc1-c1ccccc12 | inactive: -1.17 | inactive: -1.58 | inactive: 2.95 |
| CNc1nc(C)nc(N[C@H]2CCC[C@@H](C(=O)NCc3ccc(C#N)cc3C(F)(F)F)C2)n1 | inactive: 1.35 | inactive: -1.13 | inactive: 0.395 |
| CCN1CCN(CC(=O)N2CCC(c3cccc(Cl)c3)C2)C(=O)C1=O (stereo not given) | inactive: -0.404 | inactive: 3.06 | inactive: 0.284 |
| C/C(=N/OCC(O)CNC(C)(C)C)C1CC1 (stereo not given) [falintolol] | inactive: -0.393 | inactive: -0.539 | inactive: 0.416 |
| N=C(NC(=N)N1CCN(C(=N)NC(=N)Nc2ccc(Cl)cc2)CC1)Nc1ccc(Cl)cc1 | inactive: -1.24 | inactive: -0.883 | inactive: 1.53 |
| CCC[C@@]1(CC(=O)OCC)OCCc2c1[nH]c1c(C)ccc(C#N)c21 | inactive: -1.99 | inactive: 2.12 | inactive: 0.844 |
| CC(=O)N1CCN(c2cc(-c3ccccc3)c(C(F)(F)F)nn2)CC1 | inactive: 0.091 | inactive: -1.32 | inactive: -0.297 |
| Cc1cc(N=C(Nc2nccs2)NC2CCCCC2)c2ccccc2n1 [timegadine] | inactive: -1.36 | inactive: -1.3 | inactive: -0.834 |
